Data: US11878955B1, “3,3′,3″-nitrilotris(1-(naphthalen-2-yloxy)propan-2-ol) as an eco-friendly insecticidal agent against Spodoptera littoralis (boisd.)” (priority 2023, dated 2024)

Tested on: Spodoptera littoralis larvae (2nd and 4th instars)
Experiment: Insecticidal bioassay screening (castor leaf dip)
Type: in vivo
Details: after 72 h of treatment, regression line slope
Method: Five concentrations (200, 100, 50, 25, 12.5 ppm) were designed for this synthetic compound and the reference fenoxycarb compound as the dynamic ingredients based on ppm via diluting the commercial formulation.
In this experiment, castor leaves are immersed in each of the previously prepared concentrations of the components for 10 seconds and then left to dry for 60 minutes. Larvae of the second and fourth instars of each checked strain are prepared with treated leaves in gauze-covered glass containers for 72 hrs. An untreated control is made in which leaves are dipped in triton x-100 and distilled water only. Then the preserved leaves were removed & fresh, untreated leaves were provided for 72 hours. Three replicates (10 larvae each) were checked for each concentration. Daily inspection was carried out for all treatments and mortality percentages were recorded 3 days (72 hours) after treatment. The average mortality percentage was corrected employing Abbott's formula. The corrected mortality rate for each of the previously synthesized compounds is statistically calculated according to Finney (1970). Through this rate, the corresponding concentration test lines (LDP lines) are assessed. Fifty and ninety percent mortality are determined, and the regression values for the checked products were previously evaluated.

SMILES: CCOC(=O)NCCOc1ccc(Oc2ccccc2)cc1 [Fenoxycarb, reference compound]
- slope ± SE (2nd instar larvae of S. littoralis): 0.238 ± 0.082
- slope ± SE (4th instar larvae of S. littoralis): 0.251 ± 0.082
